In article PMC6797718:
No constants are given. Whether binding was seen depends on the method and setting. In cells and extracts the contact can be indirect. Some binding calls cover weakened binding; strength is not graded here.

Molecular target: T1, CD24 (human (endogenous in KGN and COV434)) (UniProt P25063)
T1 sequence: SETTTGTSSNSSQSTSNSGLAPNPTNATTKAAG
Test: co-IP; KGN or COV434 cell lysates (50 mM HEPES pH 7.4, 150 mM NaCl, 5 mM MgCl2, 1% Triton X-100), 500 ug protein, 2 h at 4 C with anti-CD24 antibodies conjugated to agarose beads; western blot for EGFR

binding: binds
Substance: EGFR (from UniProt P00533 25-1210) (receptor)
